Experimental data from US8399503B2, “Spirocyclic azaindole derivatives” (Gruenenthal GmbH, priority 2006, dated 2013).
The structures given here were assigned with low confidence; some may be wrong.

The chains behind the UniProt entries cited, without tags or fusion partners.
UniProt P35372, whole entry: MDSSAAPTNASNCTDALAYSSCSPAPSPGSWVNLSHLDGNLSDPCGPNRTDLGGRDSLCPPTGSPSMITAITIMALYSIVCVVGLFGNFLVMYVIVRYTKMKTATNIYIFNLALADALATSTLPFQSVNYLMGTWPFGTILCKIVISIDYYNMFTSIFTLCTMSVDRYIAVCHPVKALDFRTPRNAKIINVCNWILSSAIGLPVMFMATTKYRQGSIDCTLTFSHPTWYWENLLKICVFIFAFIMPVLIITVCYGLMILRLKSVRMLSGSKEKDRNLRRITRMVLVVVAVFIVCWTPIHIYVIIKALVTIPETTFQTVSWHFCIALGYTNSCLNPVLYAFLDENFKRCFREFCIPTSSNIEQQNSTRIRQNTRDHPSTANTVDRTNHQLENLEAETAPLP

Target: human μ-opiate receptor (Homo sapiens, UniProt P35372)
Assay: μ binding: [3H]-naloxone displacement, membrane preparation of CHO-K1 cells expressing the human μ-opiate receptor
Conditions: read-out: μ-Opioid receptor, Ki value; [3H]-naloxone 1 nmole/l; Cheng-Prusoff conversion; tested form: citrate (4:3)

## CN(C)C1(c2ccccc2)CCC2(CC1)OCCc1c2[nH]c2ncccc12 (stereo not shown)
  Ki: 25 nM
